We go through five compounds from the supplement of paper PMC11637464.

Structures can show the parent of a compound that is named as a salt. Some of the results follow. Single values are uncertain, as repeats are few or missing.

For this assay, the system named is primary mouse Muller glia with Ascl1 overexpression. The assay is described as follows: progenitor-like (ProL) cell count fold change vs Ascl1-only control (log2 fold change); higher = more progenitor-like cells. The settings on record: 1 µM.
Turning to `O=S(=O)(NCCNC/C=C/c1ccc(Br)cc1)c1cccc2cnccc12` [H 89 dihydrochloride] (collection day: 1), the “progenitor-like (log2)” value came to 0.399.
`CCN(CC)S(=O)(=O)Nc1cccc(-c2ccc3c(NC(=O)C4CC4)n[nH]c3c2)c1` (collection day: 2): the “progenitor-like (log2)” value amounted to 0.366.
`CNC1CCC(N(Cc2cc(-c3ccncc3)ccc2OC)C(=O)c2sc3c(F)ccc(F)c3c2Cl)CC1` (stereo not given) (collection day: 2): the “progenitor-like (log2)” value was 0.
Then `CCCCCC[C@@H]([C@@H](C)O)n1cnc2c(N)ncnc21` [EHNA hydrochloride] (collection day: 1), with 0.585; and `CNCCC(Oc1ccc(C(F)(F)F)cc1)c1ccccc1` (stereo not given) [Fluoxetine hydrochloride] (collection day: 1), with 0.295.
